The whole screen tested about 410,000 compounds, of which about 310 (0.076%) were called active. Inconclusive results, whose numbers are uncertain, are shown with a selection of clear calls. Calls follow the shape of the dose curve; as a rule, active = well fitted activation curve with a large enough effect; inconclusive = small, poorly fitted or top-dose-only effect, or another doubt; inactive = no such curve, though single readings can be large or run the other way. Potencies of inconclusive entries are doubtful fits and often do not repeat.
These compounds were tested against Parathyroid hormone/parathyroid hormone-related peptide receptor (Homo sapiens) (UniProt Q03431) (assay: qHTS for PTHR1 Agonists: Primary Screen). Details: HEK293 GP2 PTHR1 cells, GloSensor cAMP luminescence, 1 h; activation: at 115 µM (top of the series) unless noted; series mostly up to 115 µM.
In short: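 HEK-293-derived GP2 cells expressing PTHR1 and a GloSensor cAMP reporter, 3,000/well, plated overnight, given luciferin plus IBMX (each 0.5 mM as added) for 1 h at 37 °C, then compound for 1 h at 37 °C. Luminescence was read after 15 min at room temperature.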
Also: nearly all actives have a fitted effect of over 55% in size.
Potency is read from the fitted curve at half-maximal effect.

By UniProt entry, the sequences of proteins in these tests, tags left out. Where a name states a change or a piece, a line headed by the entry shows the natural chain unless it says otherwise.
UniProt Q03431: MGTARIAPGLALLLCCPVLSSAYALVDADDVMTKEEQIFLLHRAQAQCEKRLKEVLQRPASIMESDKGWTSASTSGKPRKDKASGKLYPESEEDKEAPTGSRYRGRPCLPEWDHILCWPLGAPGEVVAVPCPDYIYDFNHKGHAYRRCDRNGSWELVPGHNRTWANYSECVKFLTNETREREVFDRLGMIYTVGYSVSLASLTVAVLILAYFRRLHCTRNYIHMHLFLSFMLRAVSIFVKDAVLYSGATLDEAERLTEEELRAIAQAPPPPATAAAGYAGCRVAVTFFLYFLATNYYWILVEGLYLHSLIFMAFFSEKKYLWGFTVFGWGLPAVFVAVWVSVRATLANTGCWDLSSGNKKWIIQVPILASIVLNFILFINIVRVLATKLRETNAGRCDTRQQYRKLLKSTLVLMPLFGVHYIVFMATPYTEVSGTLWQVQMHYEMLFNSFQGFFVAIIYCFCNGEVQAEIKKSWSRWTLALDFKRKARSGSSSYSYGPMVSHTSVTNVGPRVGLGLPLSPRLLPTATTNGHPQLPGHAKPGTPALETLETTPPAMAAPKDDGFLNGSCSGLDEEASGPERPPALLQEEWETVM

Potency, inconclusive:
CCOC(=O)C1=C(C)N(c2ccccc2)C(=O)C1 35.5 µM [activator, partial curve, poor fit]
NC(=O)c1cc(S(=O)(=O)NCc2ccccc2)cs1 79.4 µM [activator, partial curve, poor fit]
CCOC(=O)Cn1nnc(-c2ccc([N+](=O)[O-])cc2)n1 141 µM [activator, single point]
Cc1ccc2occ(CC(=O)Nc3ccc(S(N)(=O)=O)cc3)c2c1 112 µM [activator, single point]
CN(C(=O)CSc1nnc2[nH]c(=O)cc(-c3ccccc3)n12)c1ccccc1 50.1 µM [activator, partial curve, poor fit]
CC1(C)C2([N+](=O)[O-])CN3CC1([N+](=O)[O-])CN(C2)C3C(O)C(O)C(O)CO (centres undefined) 44.7 µM [activator, partial curve, poor fit]
Cc1ccc(-c2n[nH]c(=O)c3ccccc23)cc1S(N)(=O)=O 126 µM [activator, single point]
Cc1[nH]c2ccccc2c1N=Nc1cc(C(=O)O)cc(C(=O)O)c1 126 µM [activator, single point]
CCOc1ccccc1NC(=O)Cn1nnc(C(=O)NCc2ccco2)c1N 5.01 µM [activator, partial curve, poor fit]
CC(=O)Nc1ccc(-c2cc(C(=O)O)c3ccccc3n2)cc1 12.6 µM [activator, full curve, poor fit]
COc1ccc(CCNC(=O)c2cccc(-n3cnc4cccnc43)c2C)cc1OC 14.1 µM [activator, partial curve]
CC(=O)N1CCc2c(sc(NC(=O)CCS(=O)(=O)c3ccccc3)c2C(N)=O)C1 4.47 µM [activator, full curve, poor fit]
CCCC1(C)SC(NC(C)=O)=NN1C(C)=O (centres undefined) 44.7 µM [activator, single point]
Cc1ccc(CN(C)C(=O)C2CCC(=O)N(CC3CCCCC3)C2)o1 (centres undefined) 5.01 µM [activator, full curve]
Cc1cccc(Nc2nc(N)nc(CN3CCN(c4ccc(F)cc4)CC3)n2)c1 126 µM [activator, single point]
O=C(O)c1ccc(/C=N/NC(=O)C(O)(c2ccccc2)c2ccccc2)cc1 153 µM [activator, partial curve]
O=C(O)CCNc1ccc2c(c1)OCCO2 17.8 µM [activator, partial curve]
COC(=O)C(C(=O)N1CCN(C)CC1)C1CCCCCC1 (centres undefined) 25.1 µM [activator, partial curve]
CCn1c(=O)n(-c2ccc3c(c2)OCO3)c2nc(-c3ccc(C(C)C)cc3)nc(C(N)=O)c21 35.5 µM [activator, single point]
Cc1ccc(S(=O)(=O)c2cn(CC(=O)Nc3cccc(Cl)c3)c3ccccc3c2=O)cc1 17.8 µM [activator, full curve]
CCN1C(=NCCN2CCOCC2)N[C@@H](c2ccccc2)C(C(=O)OC)=C1C 89.1 µM [activator, single point]
O=C(O)CCCN1C(=O)/C(=C\c2ccco2)SC1=S 50.1 µM [activator, partial curve, poor fit]
CCc1ccc(OCC(=O)c2c(O)c3ccccc3oc2=O)cc1 39.8 µM [activator, partial curve, poor fit]
COc1ccc(C(CNC(=O)c2ccc(F)cc2)N2CCCC2)cc1 (centres undefined) 2.24 µM [activator, full curve, poor fit]
CC(=O)Nc1c(C)cc(OCC(=O)O)cc1C 126 µM [activator, single point]
CCc1cc2c(=O)oc(-c3ccc(Br)cc3)nc2s1 56.2 µM [activator, partial curve, poor fit]
CCOc1ccc2nc(NC(=O)c3nc(SCc4ccccc4C)ncc3Cl)sc2c1 1.26 µM [activator, full curve, poor fit]
O=C(CCN1C(=O)S/C(=C\c2cccs2)C1=O)Nc1nccs1 126 µM [activator, single point]
OC(C#CCN1CCCC1)c1ccccc1 (centres undefined) 2.24 µM [activator, partial curve, poor fit]
Cc1ccc(C(=O)c2oc3ccc(Cl)cc3c2NC(=O)CN2CCN(C)CC2)cc1 141 µM [activator, single point]
Cc1cc(NC(=O)CSc2ncn(-c3ccccc3)n2)no1 39.8 µM [activator, partial curve, poor fit]
CC(C)CC(NC(=O)c1ccccc1NC(=O)c1ccccc1)C(=O)O (centres undefined) 89.1 µM [activator, partial curve, poor fit]
CCCCN(C(=O)c1cnc(C)cn1)c1c(N)n(CCC)c(=O)[nH]c1=O 39.8 µM [activator, partial curve, poor fit]
COc1cc(C2NC(=O)NC3=C2C(=O)OC3)cc(OC)c1OC (centres undefined) 50.1 µM [activator, partial curve, poor fit]
CCC(C)C(NC(=O)c1ccccc1NC(=O)c1ccco1)C(=O)NNC(=O)c1ccncc1 (centres undefined) 100 µM [activator, partial curve, poor fit]
O=C(O)/C=C\C(=O)Nc1ccccc1C#Cc1ccc(Br)cc1 1.26 µM [activator, full curve, poor fit]
CN(C)CCSc1nc(N)c2c3c(sc2n1)CN(C)CC3 35.5 µM [activator, single point]

Potency, inactive:
O=C(CCCN1C(=O)/C(=C/c2cccs2)SC1=S)Nc1cccc(O)c1
CC(C)(C)c1ccc(NC(=O)COC(=O)C2(C)CC2(Cl)Cl)cc1 (centres undefined)
Cc1onc(-c2c(Cl)cccc2Cl)c1COC(=O)c1ccc(Cl)cc1
O=C(NC(=S)NCc1ccc2c(c1)OCO2)c1ccccc1
Cc1cccc(NC(=O)C2CCCN(S(=O)(=O)c3c(C)noc3/C=C/N(C)C)C2)c1C (centres undefined)
Fc1ccc(CNc2ncnc3c2c(-c2ccccc2)cn3-c2ccccc2)cc1
CCNC(=O)C1CCCN(C(=O)c2ccc(OC)cc2)CC1 (centres undefined)
CCOC(=O)c1cc(-c2ccccc2)n(CCCC(=O)Nc2ccc(CC)cc2)c1C
N#Cc1ccc(NC(=O)Cn2cnc([N+](=O)[O-])c2)cc1
O=C(O)Cc1sc(-c2ccccc2Cl)nc1-c1ccccc1
Cc1ccc(S(=O)(=O)c2cn(CC(=O)Nc3ccccc3C)c3cc4c(cc3c2=O)OCO4)cc1
Cn1c(-[n+]2c(-c3ccccc3)cc(-c3ccccc3)cc2-c2ccccc2)nc2cc([N+](=O)[O-])ccc21
Cc1c(O)c2ccccc2oc1=O
COc1ccc(-c2oc3ccccc3c(=O)c2OC(C)=O)cc1
NC(=NCCCCCCN=C(N)/N=C(\N)Nc1ccc(Cl)cc1)/N=C(\N)Nc1ccc(Cl)cc1
Cc1ccc(C)c(CNC(=O)Nc2ccccc2)c1
Cc1cc(C(c2ccc(C)o2)c2ccc(C)o2)c(O)c([N+](=O)[O-])c1
Cc1ccc(-c2nc3ccccc3c(=O)n2Cc2ccccc2)cc1

Pulled by compound from the entries so far (2):
Potency, inactive:
O=C(NC(=S)NCc1ccc2c(c1)OCO2)c1ccccc1
O=C(O)Cc1sc(-c2ccccc2Cl)nc1-c1ccccc1

Next part:

activation, inconclusive:
O=C(Cn1nc(C(=O)O)c2ccccc2c1=O)Nc1ccccc1C(F)(F)F -23.8% [activator]
Cc1ccc(CN2CCN(/N=C/c3ccco3)CC2)c(C)c1 -64.3% [activator]
CCN(CC)CCCCN1c2ccccc2Sc2ccccc21 34.5% [activator]
O=C(c1ccc2c(Cl)c3c(nc2c1)CCCC3)N1CCN(c2ccccc2)CC1 -93% [activator]
CC(C)Cc1nnc(NC(=O)CN2C(=O)NC3(CCCCC3)C2=O)s1 35.2% [activator]
CCOc1ccc(CNC(=O)c2cnc3sc(N4CCOCC4)nn3c2=O)cc1OC 68.8% [activator]
CC(OC(=O)c1cc2sccc2n1C)C(=O)NCC1CCCO1 (centres undefined) 50.3% [activator] [at 57.5 µM]
COc1cc(NC(=O)CC2C(=O)N(c3cccc(C)c3)C(=O)N2Cc2ccco2)cc(OC)c1 (centres undefined) 40.4% [activator]
CNC(=S)NN=C(C)c1ccc(OC)cc1O 34.2% [activator]
Cc1ccc(N(Cc2cccs2)C(=O)C(C)Oc2ccc(Cl)c(C)c2)cc1 (centres undefined) -70.5% [activator]
Cc1ccc(C(CC(=O)O)NC(=O)CCNC(=O)c2ccco2)cc1 (centres undefined) 68.2% [activator]
OC1(CN2CCOCC2)C2CN3CCN(C2)CC1(c1ccccc1)C3 (centres undefined) 46.1% [activator]
Cc1c(CNC2CCCCC2)c(C(=O)O)c(C)n1Cc1ccc(Cl)cc1 17.3% [activator]
CCOC(=O)C1(CC2CCCCO2)CCN(S(=O)(=O)c2ccsc2)CC1 (centres undefined) 39.2% [activator]

3 structures out of the list, ordered by molar mass, low to high:
activation, inconclusive:
Cc1ccc(C(CC(=O)O)NC(=O)CCNC(=O)c2ccco2)cc1 (centres undefined) 68.2% [activator]
CCOC(=O)C1(CC2CCCCO2)CCN(S(=O)(=O)c2ccsc2)CC1 (centres undefined) 39.2% [activator]
COc1cc(NC(=O)CC2C(=O)N(c3cccc(C)c3)C(=O)N2Cc2ccco2)cc(OC)c1 (centres undefined) 40.4% [activator]
